In US20220315631A1, “STAPLED BETA-CATENIN LIGANDS” (Ohio State Innovation Foundation, priority 2019, published 2022):
For part of these data: At least one peptide structure holds a part that was inferred or is arguable (an end, a ring closure or a residue). For part of these data: For at least one compound, name, drawing or mass did not settle the structure. Positions of bridges follow the written chain, without caps; N, C: chain ends. Non-standard residues stand in square brackets, D forms with d. Residues, ends and D or L forms follow the SMILES beside them. Chains are numbered I, II in the order given. 2Nal = N[C@@H](Cc1ccc2ccccc2c1)C(=O)O; Dap = NC[C@H](N)C(=O)O; AEEA = NCCOCCOCC(=O)O

Assays:
MCF7 cells = assay: MTT cell viability assay, MCF7 (Wnt-independent) cells; assay type: cell-based; conditions: up to 20 μM
Procedure: MTT Assay. SW480 (Wnt-addicted) and MCF7 (Wnt-independent) cells were seeded in 96-well plate with 3×10^3 cells per well, and allowed to grow overnight. […] After that, 10 μL of an MTT stock solution (5 mg/mL) was added into each well and the plate was incubated at 37° C. for 4 h. 100 μL of SDS-HCl solubilizing solution was added and the plate was incubated at 37° C. overnight. The absorbance of the formazan product formed was measured at 570 nm on a Tecan microtiter plate reader. Cells were incubated with serially diluted compounds for 72 hours in the presence of 10% FBS. Data reported represent the mean±SD of 3 independent experiments.
Cell Viability Assay. Cell viability was determined using the MTT assay. […] Trypsin was neutralized with the addition of warm DPBS and cells were pelleted down at 200 g for 5 min at 4° C. […] Com-pounds were serially diluted in DPBS with standardized DMSO concentration (0.5% v/v) and added to each well. […] After that, 10 μL of MTT solution was added to each well, followed by incubation for 4 h at 37° C., 5% CO2. […] The next day, A565 was determined using a Tecan M1000 Infinite plate reader and absorbance values were standardized against cell-free wells and normalized to untreated control cells. Data was analyzed using GraphPad Prism v. […]

SW480 cells = assay: Annexin V/PI staining of SW480 cells; assay type: cell-based
DLD-1 cells = assay: Annexin V/PI staining of DLD-1 cells; assay type: cell-based
β-catenin = target: T1, β-catenin (Homo sapiens, UniProt P35222); assay: FP-based competition assay for binding to β-catenin; conditions: competition with FAM-labeled peptide 1 (10 nM), 50 nM GST-β-catenin, read-out: KD or IC50
T1 construct: cells harboring plasmid pGEX-β-catenin(133-665)52 were grown in LB medium; made in house; host or cells: E. coli BL21 (DE3)
T1 sequence (P35222 133-665): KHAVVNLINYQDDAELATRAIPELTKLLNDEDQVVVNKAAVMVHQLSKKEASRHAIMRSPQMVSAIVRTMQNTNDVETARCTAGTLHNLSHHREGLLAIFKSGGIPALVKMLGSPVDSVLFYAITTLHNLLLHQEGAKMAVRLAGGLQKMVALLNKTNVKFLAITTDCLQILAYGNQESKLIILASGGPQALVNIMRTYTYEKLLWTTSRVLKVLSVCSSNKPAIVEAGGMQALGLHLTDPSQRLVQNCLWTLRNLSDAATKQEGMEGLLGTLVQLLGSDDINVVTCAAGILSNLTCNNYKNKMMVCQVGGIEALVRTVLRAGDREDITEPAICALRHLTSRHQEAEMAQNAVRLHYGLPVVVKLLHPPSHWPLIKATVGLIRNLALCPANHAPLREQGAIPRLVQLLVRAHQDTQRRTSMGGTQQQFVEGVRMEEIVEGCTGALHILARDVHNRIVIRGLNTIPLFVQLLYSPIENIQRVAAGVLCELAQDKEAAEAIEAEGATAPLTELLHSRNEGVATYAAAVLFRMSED
Procedure: Samples were transferred into black-on-black 384-well non-binding microplates (Greiner) and FP was measured using a Tecan M1000 Infinite plate reader. The data were analyzed using GraphPad Prism v. 8.0 and normalized to FP values corresponding to fully bound/unbound probe. All binding values reported are the mean±SD of independent experiments.
Protein Purification. […] Cells were harvested by centrifugation and lysed in lysis buffer (20 mM Tris, pH 8.0, 150 mM NaCl, 2 mM DTT, 1% Triton-X100, 200 mM EDTA, 10 mg/mL PMSF, and 0.2 mg/mL lysozyme) on ice for 20 min, followed by sonication (8 s off, 2 s on, 1 min total, performed twice at 70% amplitude). The homogenate was centrifuged (13,000 g for 30 min at 4° C. and the clear supernatant was loaded onto an equilibrated glutathione-agarose column. After exhaustive washing with wash buffer (20 mM Tris, pH 7.4, 150 mM NaCl, 2 mM DTT), the bound GST-β-catenin was eluted with wash buffer supplemented with 10 mM glutathione, concentrated, and stored at −80° C. in 30% glycerol.

Row | Structure (SMILES) | effect on MCF7 cell viability (MCF7 cells) | cells undergoing apoptotic cell death (SW480 cells; SW480 cells, 25 μM) [%] | induction of apoptosis or necrosis of SW480 cells (SW480 cells; until 25 μM concentration) | cells undergoing apoptotic cell death (DLD-1 cells; DLD-1 cells, 25 μM) [%] | induction of apoptosis or necrosis of DLD-1 cells (DLD-1 cells; until 25 μM concentration) | IC50 (β-catenin) [nM]
1 | CC[C@H](C)[C@@H]1NC(=O)[C@@H](NC(=O)[C@H](CCC(=O)O)NC(=O)[C@@H]2CCCN2C(=O)[C@H](Cc2ccc(O)cc2)NC(=O)CNC(=O)CNC(C)=O)CC(=O)NCCCC[C@@H](C(=O)N[C@@H](Cc2c[nH]cn2)C(=O)N[C@@H](CC(C)C)C(=O)N[C@@H](CCC(N)=O)C(=O)N[C@@H](CCCNC(=N)N)C(=O)N[C@H](C(=O)N[C@H](C(=O)N[C@@H](CC(C)C)C(=O)NCCOCCOCC(=O)NCCOCCOCC(=O)N[C@@H](CNC(=O)CC[C@@H]2NC(=O)[C@@H](CCCNC(=N)N)NC(=O)[C@H](CCCNC(=N)N)NC(=O)[C@@H](CCCNC(=N)N)NC(=O)[C@H](CCCNC(=N)N)NC(=O)[C@H](Cc3ccc4ccccc4c3)NC(=O)[C@@H](Cc3ccccc3)NC2=O)C(N)=O)[C@@H](C)CC)C(C)C)NC(=O)[C@H](CC(=O)O)NC(=O)[C@H](CC(C)C)NC1=O [peptide 2] (I: Ac-GGYPEDILDKHLQRVIL[AEEA][AEEA][Dap]-NH2 / II: cyclo([2Nal]R[dR]R[dR]E[dF]); lactam I:6-I:10; amide I:20-II:6) | negligible effect | ~10 | did not induce apoptosis or necrosis | ~10 | did not induce apoptosis or necrosis | –
2 | CC[C@H](C)[C@@H]1NC(=O)[C@@H](NC(=O)[C@H](CCC(=O)O)NC(=O)[C@@H]2CCCN2C(=O)[C@H](Cc2ccc(O)cc2)NC(=O)CNC(=O)CNC(C)=O)CC(=O)NCCCC[C@@H](C(=O)N[C@@H](CC(=O)O)C(=O)N[C@@H](CC(C)C)C(=O)N[C@@H](CCC(N)=O)C(=O)N[C@@H](CCCNC(=N)N)C(=O)N[C@H](C(=O)N[C@@H](C)C(=O)N[C@@H](CC(C)C)C(=O)NCCOCCOCC(=O)NCCOCCOCC(=O)N[C@@H](CNC(=O)CC[C@@H]2NC(=O)[C@@H](CCCNC(=N)N)NC(=O)[C@H](CCCNC(=N)N)NC(=O)[C@@H](CCCNC(=N)N)NC(=O)[C@H](CCCNC(=N)N)NC(=O)[C@H](Cc3ccc4ccccc4c3)NC(=O)[C@@H](Cc3ccccc3)NC2=O)C(N)=O)C(C)C)NC(=O)[C@H](Cc2c[nH]cn2)NC(=O)[C@H](CC(C)C)NC1=O [peptide 3] (I: Ac-GGYPEDILHKDLQRVAL[AEEA][AEEA][Dap]-NH2 / II: cyclo([2Nal]R[dR]R[dR]E[dF]); lactam I:6-I:10 (inferred); amide I:20-II:6 (inferred); ring closure inferred) | – | – | – | – | – | > 1250
